{
  "sequences": {"note": "By UniProt entry, the sequences of proteins in these tests, tags left out.", "UniProt P18848": "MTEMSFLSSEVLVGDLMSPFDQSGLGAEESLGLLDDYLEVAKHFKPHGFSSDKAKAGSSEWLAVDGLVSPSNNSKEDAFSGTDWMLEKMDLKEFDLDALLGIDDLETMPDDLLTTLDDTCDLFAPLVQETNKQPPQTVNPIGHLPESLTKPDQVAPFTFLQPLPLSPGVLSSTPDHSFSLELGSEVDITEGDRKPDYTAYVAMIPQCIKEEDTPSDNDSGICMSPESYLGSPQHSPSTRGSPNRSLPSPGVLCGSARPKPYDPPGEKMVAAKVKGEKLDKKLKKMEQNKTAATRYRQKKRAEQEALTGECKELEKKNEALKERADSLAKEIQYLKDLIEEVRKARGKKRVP"},
  "source": "paper PMC9984184",
  "binders": {"B1": {"name": "endogenous ATF4 of rat neurons (protein, UniProt Q9ES19 1-347)", "chain": "MTEMSFLNSEVLAGDLMSPFDQSGLGAEESLGLLDDYLEVAKHFKPHGFSSDKAGSSEWLAMDGLVSASDTGKEDAFSGTDWMLEKMDLKEFDFDALFRMDDLETMPDELLATLDDTCDLFAPLVQETNKEPPQTVNPIGHLPESVIKVDQAAPFTFLQPLPCSPGFLSSTPDHSFSLELGSEVDISEGDRKPDSAAYITLTPQCVKEEDTPSDSDSGICMSPESYLGSPQHSPSTSRAPPDSLPSPGVPRGSRPKPYDPPGVSVTAKVKTEKLDKKLKKMEQNKTAATRYRQKKRAEQEALTGECKELEKKNEALKEKADSLAKEIQYLKDLIEEVRKARGKKRVP"}, "B2": {"name": "endogenous CREB3L2 of mouse brain (protein, UniProt Q8BH52 1-521)", "chain": "MEVLESGEQSVLQWDRKLSELSEPGETEALMYHTHFSELLDEFSQNVLGQLLSDPFLSEKSESMEVEPSPTSPAPLIQAEHSYSLSEEPRTQSPFTHAATSDSFNDEEVESEKWYLSTEFPSATIKTEPITEEQPPGLVPSVTLTITAISTPFEKEESPLDMNAGGDSSCQTLIPKIKLEPHEVDQFLNFSPKEASVDQLHLPPTPPSSHSSDSEGSLSPNPRLHPFSLSQAHSPARAMPRGPSALSTSPLLTAPHKLQGSGPLVLTEEEKRTLVAEGYPIPTKLPLTKSEEKALKKIRRKIKNKISAQESRRKKKEYMDSLEKKVESCSTENLELRKKVEVLENTNRTLLQQLQKLQTLVMGKVSRTCKLAGTQTGTCLMVVVLCFAVAFGSFFQGYGPYPSATKMALPSQHPLSEPYTASVVRSRNLLIYEEHAPLEESSSPASAGELGGWDRGSSLLRASSGLEALPEVDLPHFLISNETSLEKSVLLELQQHLVSSKLEGNETLKVVELERRVNATF"}, "B3": {"name": "endogenous CREB3L2 of human brain (protein, UniProt Q70SY1 1-520)", "chain": "MEVLESGEQGVLQWDRKLSELSEPGDGEALMYHTHFSELLDEFSQNVLGQLLNDPFLSEKSVSMEVEPSPTSPAPLIQAEHSYSLCEEPRAQSPFTHITTSDSFNDDEVESEKWYLSTDFPSTSIKTEPVTDEPPPGLVPSVTLTITAISTPLEKEEPPLEMNTGVDSSCQTIIPKIKLEPHEVDQFLNFSPKEAPVDHLHLPPTPPSSHGSDSEGSLSPNPRLHPFSLPQTHSPSRAAPRAPSALSSSPLLTAPHKLQGSGPLVLTEEEKRTLIAEGYPIPTKLPLSKSEEKALKKIRRKIKNKISAQESRRKKKEYMDSLEKKVESCSTENLELRKKVEVLENTNRTLLQQLQKLQTLVMGKVSRTCKLAGTQTGTCLMVVVLCFAVAFGSFFQGYGPYPSATKMALPSQHSLQEPYTASVVRSRNLLIYEEHSPPEESSSPGSAGELGGWDRGSSLLRVSGLESRPDVDLPHFIISNETSLEKSVLLELQQHLVSAKLEGNETLKVVELDRRVNTTF"}},
  "key": {"[1]": {"target": "T1, endogenous CREB3L2 of rat neurons (rat (endogenous in cortical and hippocampal neurons)) (UniProt Q6QDP7)", "T1 sequence": "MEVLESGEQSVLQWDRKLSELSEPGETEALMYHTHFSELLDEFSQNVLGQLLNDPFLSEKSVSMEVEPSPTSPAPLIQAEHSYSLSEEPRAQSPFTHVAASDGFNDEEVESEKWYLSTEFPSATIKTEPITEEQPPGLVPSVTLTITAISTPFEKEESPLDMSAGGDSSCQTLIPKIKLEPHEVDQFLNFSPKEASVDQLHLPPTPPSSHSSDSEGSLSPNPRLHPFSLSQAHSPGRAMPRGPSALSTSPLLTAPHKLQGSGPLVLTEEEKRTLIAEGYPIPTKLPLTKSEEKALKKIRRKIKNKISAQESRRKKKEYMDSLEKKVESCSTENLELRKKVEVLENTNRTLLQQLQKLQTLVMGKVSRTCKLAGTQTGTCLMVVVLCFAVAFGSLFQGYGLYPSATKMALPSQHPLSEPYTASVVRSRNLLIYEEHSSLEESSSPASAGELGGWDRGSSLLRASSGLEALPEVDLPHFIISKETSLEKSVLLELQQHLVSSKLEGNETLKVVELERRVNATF", "test": "co-IP; endogenous proteins in neuritic (axon-dendritic) extracts of mixed cortical and hippocampal neurons grown on transwell inserts, treated with Aβ42 or vehicle; ATF4 blotted in the CREB3L2 precipitate"}, "[2]": {"target": "T1, endogenous CREB3L2 of rat neurons (rat (endogenous in cortical and hippocampal neurons))", "test": "proximity ligation; endogenous proteins in fixed rat hippocampal neurons (microfluidic chambers or dissociated cultures); anti-CREB3L2 and anti-ATF4 primary antibodies, Duolink In situ Red; Aβ42 or vehicle for 12 or 18 hours; also ciliobrevin A, emetine, α-synuclein fibrils"}, "[3]": {"target": "T2, endogenous ATF4 of mouse brain (mouse (endogenous in brain)) (UniProt Q06507)", "T2 sequence": "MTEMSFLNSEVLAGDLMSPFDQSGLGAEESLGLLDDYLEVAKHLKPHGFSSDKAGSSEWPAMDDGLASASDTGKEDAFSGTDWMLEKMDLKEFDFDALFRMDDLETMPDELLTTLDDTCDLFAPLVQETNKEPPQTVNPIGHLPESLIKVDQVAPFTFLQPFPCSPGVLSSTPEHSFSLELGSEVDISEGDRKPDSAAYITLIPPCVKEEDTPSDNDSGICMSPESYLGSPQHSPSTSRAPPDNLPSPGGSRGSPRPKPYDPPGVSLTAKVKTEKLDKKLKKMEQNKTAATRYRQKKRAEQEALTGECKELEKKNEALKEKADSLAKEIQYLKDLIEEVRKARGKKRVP", "test": "proximity ligation; endogenous proteins in 12-μm coronal brain sections (dentate gyrus) of 10-week-old 5xFAD and wild-type mice; anti-CREB3L2 and anti-ATF4 directly conjugated with PLA PLUS and MINUS oligonucleotides, Duolink In situ Far-red"}, "[4]": {"target": "endogenous ATF4 of human brain (human (endogenous in dorsolateral prefrontal cortex)) (UniProt P18848)", "test": "proximity ligation; endogenous proteins in paraffin sections of human dorsolateral prefrontal cortex (AD and controls); directly conjugated anti-CREB3L2 and anti-ATF4 probes, Duolink In Situ Brightfield; neurofilament costain"}, "[5]": {"target": "endogenous ATF4 of human brain (human (endogenous in dorsolateral prefrontal cortex)) (UniProt P18848)", "test": "co-IP; endogenous proteins in lysates of frozen human dorsolateral prefrontal cortex (controls and late-onset AD); anti-ATF4 cross-linked to protein A magnetic beads, overnight at 4°C; 20 mM tris-Cl pH 8, 137 mM NaCl, 1% NP-40, 2 mM EDTA; CREB3L2 blotted in the eluate"}},
  "note": "Results are given in words; binding and its absence hold for the method and conditions named. Binding seen in cells or lysates may run through a third protein. Some results given as binding are weak or reduced against the parent protein; the word gives no strength.",
  "data": [
    {"binder": "B1", "values": [
      {"measurement": "binding", "setting": "[1]", "value": "binds"},
      {"measurement": "binding", "setting": "[2]", "value": "binds"}
    ]},
    {"binder": "B2", "values": [
      {"measurement": "binding", "setting": "[3]", "value": "binds"}
    ]},
    {"binder": "B3", "values": [
      {"measurement": "binding", "setting": "[4]", "value": "binds"},
      {"measurement": "binding", "setting": "[5]", "value": "binds"}
    ]}
  ]
}
